Experimental data taken from PMC4507774, “Arabidopsis seed-specific vacuolar aquaporins are involved in maintaining seed longevity under the control of ABSCISIC ACID INSENSITIVE 3”.

Biological target: T1, ABI3-GST full-length (UniProt Q01593)
T1 sequence (looked up): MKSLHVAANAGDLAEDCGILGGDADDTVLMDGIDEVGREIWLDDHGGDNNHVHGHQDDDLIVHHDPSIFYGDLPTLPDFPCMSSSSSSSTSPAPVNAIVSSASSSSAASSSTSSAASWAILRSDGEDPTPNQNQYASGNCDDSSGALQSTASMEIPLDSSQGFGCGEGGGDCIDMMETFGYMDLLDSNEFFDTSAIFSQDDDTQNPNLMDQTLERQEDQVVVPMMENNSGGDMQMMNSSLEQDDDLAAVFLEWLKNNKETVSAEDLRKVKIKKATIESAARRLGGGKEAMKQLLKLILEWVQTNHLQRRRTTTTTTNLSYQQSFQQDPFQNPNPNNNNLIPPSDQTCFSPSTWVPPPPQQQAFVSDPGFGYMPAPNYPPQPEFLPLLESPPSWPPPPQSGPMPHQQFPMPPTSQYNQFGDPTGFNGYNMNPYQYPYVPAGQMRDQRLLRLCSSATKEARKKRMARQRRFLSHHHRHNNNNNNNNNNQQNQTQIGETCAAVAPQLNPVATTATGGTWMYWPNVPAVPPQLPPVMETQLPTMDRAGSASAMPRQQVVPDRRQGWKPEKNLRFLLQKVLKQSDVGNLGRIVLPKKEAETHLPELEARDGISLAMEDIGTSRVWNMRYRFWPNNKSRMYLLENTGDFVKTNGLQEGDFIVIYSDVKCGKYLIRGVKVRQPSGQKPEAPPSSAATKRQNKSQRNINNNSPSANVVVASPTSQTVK
Test: DPI-ELISA
Settings: E. coli extract, anti-GST-HRP; protein in a lysate after overexpression; residues 1-720; protein details: GST (pGEX-4T-1); label: biotin

Sequence: ATCTACTTGGCACACATGCATGCTTAGTCAACACA (double strand) [31RY2-bio (TIP3;1 promoter RY2)]
- binding result: binds

The exact form of at least one protein or probe is not confirmed. Results from cells or extracts need not show a direct contact. At least one verdict rests on a figure or table, not on a statement of the authors. Tags and fusion partners may be left off the protein sequences shown.
